In publication PMC12442633:
No constants are given. Whether binding was seen depends on the method and setting. In cells and extracts the contact can be indirect. Some results given as binding are weak or reduced against the parent protein; the word gives no strength. For some of these results: Sequences can lack the tags named with a protein.

Sequences of proteins named here, by UniProt entry; tags and fusion partners are left off.
UniProt P31749: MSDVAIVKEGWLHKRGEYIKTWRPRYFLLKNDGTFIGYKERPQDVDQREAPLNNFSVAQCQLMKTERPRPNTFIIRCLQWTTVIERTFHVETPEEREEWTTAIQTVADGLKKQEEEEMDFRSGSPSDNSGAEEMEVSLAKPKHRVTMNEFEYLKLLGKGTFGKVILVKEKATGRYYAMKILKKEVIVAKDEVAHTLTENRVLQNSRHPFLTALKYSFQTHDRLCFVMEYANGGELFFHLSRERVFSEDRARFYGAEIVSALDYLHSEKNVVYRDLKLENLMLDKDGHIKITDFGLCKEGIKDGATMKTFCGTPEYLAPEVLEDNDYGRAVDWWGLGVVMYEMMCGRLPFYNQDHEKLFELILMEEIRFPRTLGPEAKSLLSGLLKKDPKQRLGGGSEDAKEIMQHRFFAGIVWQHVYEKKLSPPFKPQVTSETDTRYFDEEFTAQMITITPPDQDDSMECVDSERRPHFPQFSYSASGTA

Key:
[1] = target: T1, MDA5 (construct of the supplementary figures not shown) (UniProt Q9BYX4); experiment: co-IP; with or without EMCV infection; cells, baits and constructs not shown (Figure S5A,E)
T1 sequence: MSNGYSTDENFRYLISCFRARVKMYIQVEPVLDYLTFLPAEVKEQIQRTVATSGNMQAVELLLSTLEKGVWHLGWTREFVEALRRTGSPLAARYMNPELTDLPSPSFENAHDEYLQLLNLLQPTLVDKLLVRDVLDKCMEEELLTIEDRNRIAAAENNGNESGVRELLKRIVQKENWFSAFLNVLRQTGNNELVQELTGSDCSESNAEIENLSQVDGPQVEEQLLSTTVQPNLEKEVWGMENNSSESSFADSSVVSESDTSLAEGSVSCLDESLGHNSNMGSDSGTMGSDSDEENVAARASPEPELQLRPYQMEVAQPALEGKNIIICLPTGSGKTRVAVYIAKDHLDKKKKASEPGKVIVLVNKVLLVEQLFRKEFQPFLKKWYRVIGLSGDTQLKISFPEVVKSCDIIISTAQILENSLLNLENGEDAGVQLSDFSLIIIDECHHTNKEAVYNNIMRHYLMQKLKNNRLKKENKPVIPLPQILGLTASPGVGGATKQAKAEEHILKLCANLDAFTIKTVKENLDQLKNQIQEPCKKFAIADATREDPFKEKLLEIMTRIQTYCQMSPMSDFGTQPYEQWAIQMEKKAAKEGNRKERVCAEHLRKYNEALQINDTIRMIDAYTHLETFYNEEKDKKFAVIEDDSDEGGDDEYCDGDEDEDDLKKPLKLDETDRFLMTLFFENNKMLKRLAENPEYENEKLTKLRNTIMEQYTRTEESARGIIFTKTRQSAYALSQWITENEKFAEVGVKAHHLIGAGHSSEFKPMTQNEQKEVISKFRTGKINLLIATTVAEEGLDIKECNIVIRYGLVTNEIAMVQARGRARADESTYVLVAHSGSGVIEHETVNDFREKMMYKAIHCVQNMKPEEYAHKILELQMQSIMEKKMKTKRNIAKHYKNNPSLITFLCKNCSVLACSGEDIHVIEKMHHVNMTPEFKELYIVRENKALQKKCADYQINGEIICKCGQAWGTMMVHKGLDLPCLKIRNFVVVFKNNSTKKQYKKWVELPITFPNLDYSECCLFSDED

[2] = target: T2, USP8 (construct of the supplementary figures not shown) (human) (UniProt P40818); experiment: as above
T2 sequence: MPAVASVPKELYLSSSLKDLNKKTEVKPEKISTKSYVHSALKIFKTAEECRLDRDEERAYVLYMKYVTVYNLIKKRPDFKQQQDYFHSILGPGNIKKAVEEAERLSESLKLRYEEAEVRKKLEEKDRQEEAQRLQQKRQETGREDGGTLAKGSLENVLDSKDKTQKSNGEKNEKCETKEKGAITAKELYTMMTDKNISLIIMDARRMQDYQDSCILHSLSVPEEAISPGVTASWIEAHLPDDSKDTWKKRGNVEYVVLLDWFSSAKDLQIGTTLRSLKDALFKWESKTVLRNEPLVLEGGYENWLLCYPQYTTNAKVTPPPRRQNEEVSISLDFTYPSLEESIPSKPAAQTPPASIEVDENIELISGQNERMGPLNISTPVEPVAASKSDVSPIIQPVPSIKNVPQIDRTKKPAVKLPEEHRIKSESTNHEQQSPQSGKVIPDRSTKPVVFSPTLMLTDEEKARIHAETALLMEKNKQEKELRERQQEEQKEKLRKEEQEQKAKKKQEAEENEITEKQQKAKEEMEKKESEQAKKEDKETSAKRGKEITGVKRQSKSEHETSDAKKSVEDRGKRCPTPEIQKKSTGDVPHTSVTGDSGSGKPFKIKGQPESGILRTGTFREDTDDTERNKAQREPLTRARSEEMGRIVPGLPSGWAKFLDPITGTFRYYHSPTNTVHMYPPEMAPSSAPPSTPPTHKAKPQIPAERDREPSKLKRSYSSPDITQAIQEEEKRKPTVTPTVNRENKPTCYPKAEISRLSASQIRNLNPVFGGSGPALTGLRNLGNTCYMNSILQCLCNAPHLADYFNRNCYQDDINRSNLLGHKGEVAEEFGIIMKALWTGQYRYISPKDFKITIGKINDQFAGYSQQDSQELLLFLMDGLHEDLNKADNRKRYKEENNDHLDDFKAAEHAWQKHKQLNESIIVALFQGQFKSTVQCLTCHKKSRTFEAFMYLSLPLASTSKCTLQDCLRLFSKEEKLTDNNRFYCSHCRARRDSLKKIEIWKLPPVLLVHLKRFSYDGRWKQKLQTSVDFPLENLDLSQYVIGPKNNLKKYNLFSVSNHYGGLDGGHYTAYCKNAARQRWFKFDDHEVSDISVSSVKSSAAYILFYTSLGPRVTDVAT

Myc-MDA5 = target: T3, Myc-MDA5 (UniProt Q9BYX4); experiment: co-IP; HEK293T cells transfected with USP8, MDA5 and empty vector or the indicated dose of HA-AKT1; NP-40 lysis buffer; Anti-Myc or S-protein agarose at 4 °C overnight
T3 sequence: T1 sequence

SFB-USP8 (human) = target: T4, SFB-USP8 (human) (UniProt P40818); experiment: as above
T4 sequence: T2 sequence

Row | binding [1] | binding [2] | binding (Myc-MDA5) | binding (SFB-USP8 (human)) | Substance
1 | binds | binds | – | – | AKT1 (construct of the supplementary figures not shown) (from UniProt P31749 1-480) (enzyme)
2 | – | – | binds | binds | HA-AKT1 (from UniProt P31749 1-480) (enzyme)
